The record followed here is article PMC12955895.

By UniProt entry, the sequences of proteins in these tests, tags left out.
UniProt P60842: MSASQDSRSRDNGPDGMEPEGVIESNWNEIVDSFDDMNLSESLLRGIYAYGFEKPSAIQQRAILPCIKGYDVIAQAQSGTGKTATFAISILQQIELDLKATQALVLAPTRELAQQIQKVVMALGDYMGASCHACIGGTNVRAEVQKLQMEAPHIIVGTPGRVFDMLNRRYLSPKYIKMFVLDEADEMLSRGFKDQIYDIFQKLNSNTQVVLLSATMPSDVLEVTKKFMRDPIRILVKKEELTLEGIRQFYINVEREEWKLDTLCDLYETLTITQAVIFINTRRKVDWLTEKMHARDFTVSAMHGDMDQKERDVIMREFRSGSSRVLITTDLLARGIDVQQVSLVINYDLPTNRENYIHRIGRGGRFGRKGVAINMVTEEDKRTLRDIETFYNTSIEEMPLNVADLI
UniProt P06730: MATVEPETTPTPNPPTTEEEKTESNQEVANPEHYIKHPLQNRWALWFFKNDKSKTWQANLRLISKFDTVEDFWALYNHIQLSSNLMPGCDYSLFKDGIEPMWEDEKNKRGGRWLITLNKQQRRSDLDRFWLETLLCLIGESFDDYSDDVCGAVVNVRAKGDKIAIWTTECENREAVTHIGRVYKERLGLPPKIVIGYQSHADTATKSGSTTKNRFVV

In assay [1] the target is T1, T‐lymphokine‐activated killer cell‐originated protein kinase (TOPK), endogenous (human (endogenous in SGC7901, BGC823 and patient tissue)) (UniProt Q96KB5).
T1 sequence: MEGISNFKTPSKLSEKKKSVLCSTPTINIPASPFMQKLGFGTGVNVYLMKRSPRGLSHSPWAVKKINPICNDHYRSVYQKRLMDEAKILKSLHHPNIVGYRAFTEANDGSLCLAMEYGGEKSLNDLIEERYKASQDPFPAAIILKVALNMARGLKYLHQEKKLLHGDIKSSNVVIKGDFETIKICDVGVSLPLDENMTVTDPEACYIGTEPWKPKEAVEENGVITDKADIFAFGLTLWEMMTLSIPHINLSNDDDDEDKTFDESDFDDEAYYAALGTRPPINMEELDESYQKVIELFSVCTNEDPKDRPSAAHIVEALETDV
Description: proximity ligation; PLA on gastric cancer patient tumor tissue.

Assay [2] deals with T1, T‐lymphokine‐activated killer cell‐originated protein kinase (TOPK), endogenous (human (endogenous in SGC7901, BGC823 and patient tissue)). Nature of the assay: proximity ligation; PLA on adjacent normal tissue of gastric cancer patients.
Assay [3] shares this target. Description: co-IP; endogenous TOPK and eIF4A1 in SGC7901 and BGC823 cells.
The target is the same in assay [4]. Nature of the assay: proximity ligation; PLA of TOPK and eIF4A1 in SGC7901 and BGC823 cells under IFN‐γ conditions (10 ng mL^−1, 48 h).
The next assay concerns the target T2, TOPK, exogenous (UniProt Q96KB5).
T2 sequence: T1 sequence
Description: co-IP; exogenous TOPK and eIF4A1 in 293T and BGC823 cells.

Results are given in words; binding and its absence hold for the method and conditions named. Binding seen in cells or lysates may run through a third protein. Some results given as binding are weak or reduced against the parent protein; the word gives no strength.

Consider “eIF4A1, endogenous (from UniProt P60842 1-406) (enzyme)”, for which the binding result in assay [1] was “binds”; in assay [2] it was “no binding (condition: in adjacent normal tissues)”; in assay [3] it was “binds”; in assay [4] it was “binds”.

On to “eIF4A1, exogenous (from UniProt P60842 1-406) (enzyme)”, for which, in the assay with TOPK, exogenous, the binding entry was “binds”.

For eIF4E (from UniProt P06730 1-217), the binding entry in assay [1] is given as “binds”.
